Measured values published in paper PMC12155601.
Results are given in words; binding and its absence hold for the method and conditions named. In cells and extracts the contact can be indirect. These calls come from enrichment with a bait or labelling near it, and not all partners need be listed.

By UniProt entry, the sequences of proteins in these tests, tags left out. Where a name states a change or a piece, a line headed by the entry shows the natural chain unless it says otherwise.
UniProt Q7ZYC1: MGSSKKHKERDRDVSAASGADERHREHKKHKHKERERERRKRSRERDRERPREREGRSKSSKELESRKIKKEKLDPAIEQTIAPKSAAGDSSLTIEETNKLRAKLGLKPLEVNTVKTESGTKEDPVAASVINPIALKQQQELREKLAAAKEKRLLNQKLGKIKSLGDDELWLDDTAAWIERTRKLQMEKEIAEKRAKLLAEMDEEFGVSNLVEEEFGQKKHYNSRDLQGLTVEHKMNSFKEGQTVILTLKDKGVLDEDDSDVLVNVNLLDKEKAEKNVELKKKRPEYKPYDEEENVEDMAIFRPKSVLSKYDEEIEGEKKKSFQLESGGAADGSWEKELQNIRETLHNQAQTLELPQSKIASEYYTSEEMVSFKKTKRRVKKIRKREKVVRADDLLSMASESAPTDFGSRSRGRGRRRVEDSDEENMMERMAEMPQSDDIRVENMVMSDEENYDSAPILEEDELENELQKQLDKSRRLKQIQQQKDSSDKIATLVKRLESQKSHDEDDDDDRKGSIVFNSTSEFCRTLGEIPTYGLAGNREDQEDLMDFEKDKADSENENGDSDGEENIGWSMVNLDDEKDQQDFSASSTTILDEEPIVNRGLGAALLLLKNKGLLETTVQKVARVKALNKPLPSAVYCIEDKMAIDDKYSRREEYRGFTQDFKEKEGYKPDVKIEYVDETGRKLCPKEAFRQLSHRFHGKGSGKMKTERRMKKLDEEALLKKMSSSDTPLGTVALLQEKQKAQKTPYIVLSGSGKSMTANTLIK
UniProt P70039: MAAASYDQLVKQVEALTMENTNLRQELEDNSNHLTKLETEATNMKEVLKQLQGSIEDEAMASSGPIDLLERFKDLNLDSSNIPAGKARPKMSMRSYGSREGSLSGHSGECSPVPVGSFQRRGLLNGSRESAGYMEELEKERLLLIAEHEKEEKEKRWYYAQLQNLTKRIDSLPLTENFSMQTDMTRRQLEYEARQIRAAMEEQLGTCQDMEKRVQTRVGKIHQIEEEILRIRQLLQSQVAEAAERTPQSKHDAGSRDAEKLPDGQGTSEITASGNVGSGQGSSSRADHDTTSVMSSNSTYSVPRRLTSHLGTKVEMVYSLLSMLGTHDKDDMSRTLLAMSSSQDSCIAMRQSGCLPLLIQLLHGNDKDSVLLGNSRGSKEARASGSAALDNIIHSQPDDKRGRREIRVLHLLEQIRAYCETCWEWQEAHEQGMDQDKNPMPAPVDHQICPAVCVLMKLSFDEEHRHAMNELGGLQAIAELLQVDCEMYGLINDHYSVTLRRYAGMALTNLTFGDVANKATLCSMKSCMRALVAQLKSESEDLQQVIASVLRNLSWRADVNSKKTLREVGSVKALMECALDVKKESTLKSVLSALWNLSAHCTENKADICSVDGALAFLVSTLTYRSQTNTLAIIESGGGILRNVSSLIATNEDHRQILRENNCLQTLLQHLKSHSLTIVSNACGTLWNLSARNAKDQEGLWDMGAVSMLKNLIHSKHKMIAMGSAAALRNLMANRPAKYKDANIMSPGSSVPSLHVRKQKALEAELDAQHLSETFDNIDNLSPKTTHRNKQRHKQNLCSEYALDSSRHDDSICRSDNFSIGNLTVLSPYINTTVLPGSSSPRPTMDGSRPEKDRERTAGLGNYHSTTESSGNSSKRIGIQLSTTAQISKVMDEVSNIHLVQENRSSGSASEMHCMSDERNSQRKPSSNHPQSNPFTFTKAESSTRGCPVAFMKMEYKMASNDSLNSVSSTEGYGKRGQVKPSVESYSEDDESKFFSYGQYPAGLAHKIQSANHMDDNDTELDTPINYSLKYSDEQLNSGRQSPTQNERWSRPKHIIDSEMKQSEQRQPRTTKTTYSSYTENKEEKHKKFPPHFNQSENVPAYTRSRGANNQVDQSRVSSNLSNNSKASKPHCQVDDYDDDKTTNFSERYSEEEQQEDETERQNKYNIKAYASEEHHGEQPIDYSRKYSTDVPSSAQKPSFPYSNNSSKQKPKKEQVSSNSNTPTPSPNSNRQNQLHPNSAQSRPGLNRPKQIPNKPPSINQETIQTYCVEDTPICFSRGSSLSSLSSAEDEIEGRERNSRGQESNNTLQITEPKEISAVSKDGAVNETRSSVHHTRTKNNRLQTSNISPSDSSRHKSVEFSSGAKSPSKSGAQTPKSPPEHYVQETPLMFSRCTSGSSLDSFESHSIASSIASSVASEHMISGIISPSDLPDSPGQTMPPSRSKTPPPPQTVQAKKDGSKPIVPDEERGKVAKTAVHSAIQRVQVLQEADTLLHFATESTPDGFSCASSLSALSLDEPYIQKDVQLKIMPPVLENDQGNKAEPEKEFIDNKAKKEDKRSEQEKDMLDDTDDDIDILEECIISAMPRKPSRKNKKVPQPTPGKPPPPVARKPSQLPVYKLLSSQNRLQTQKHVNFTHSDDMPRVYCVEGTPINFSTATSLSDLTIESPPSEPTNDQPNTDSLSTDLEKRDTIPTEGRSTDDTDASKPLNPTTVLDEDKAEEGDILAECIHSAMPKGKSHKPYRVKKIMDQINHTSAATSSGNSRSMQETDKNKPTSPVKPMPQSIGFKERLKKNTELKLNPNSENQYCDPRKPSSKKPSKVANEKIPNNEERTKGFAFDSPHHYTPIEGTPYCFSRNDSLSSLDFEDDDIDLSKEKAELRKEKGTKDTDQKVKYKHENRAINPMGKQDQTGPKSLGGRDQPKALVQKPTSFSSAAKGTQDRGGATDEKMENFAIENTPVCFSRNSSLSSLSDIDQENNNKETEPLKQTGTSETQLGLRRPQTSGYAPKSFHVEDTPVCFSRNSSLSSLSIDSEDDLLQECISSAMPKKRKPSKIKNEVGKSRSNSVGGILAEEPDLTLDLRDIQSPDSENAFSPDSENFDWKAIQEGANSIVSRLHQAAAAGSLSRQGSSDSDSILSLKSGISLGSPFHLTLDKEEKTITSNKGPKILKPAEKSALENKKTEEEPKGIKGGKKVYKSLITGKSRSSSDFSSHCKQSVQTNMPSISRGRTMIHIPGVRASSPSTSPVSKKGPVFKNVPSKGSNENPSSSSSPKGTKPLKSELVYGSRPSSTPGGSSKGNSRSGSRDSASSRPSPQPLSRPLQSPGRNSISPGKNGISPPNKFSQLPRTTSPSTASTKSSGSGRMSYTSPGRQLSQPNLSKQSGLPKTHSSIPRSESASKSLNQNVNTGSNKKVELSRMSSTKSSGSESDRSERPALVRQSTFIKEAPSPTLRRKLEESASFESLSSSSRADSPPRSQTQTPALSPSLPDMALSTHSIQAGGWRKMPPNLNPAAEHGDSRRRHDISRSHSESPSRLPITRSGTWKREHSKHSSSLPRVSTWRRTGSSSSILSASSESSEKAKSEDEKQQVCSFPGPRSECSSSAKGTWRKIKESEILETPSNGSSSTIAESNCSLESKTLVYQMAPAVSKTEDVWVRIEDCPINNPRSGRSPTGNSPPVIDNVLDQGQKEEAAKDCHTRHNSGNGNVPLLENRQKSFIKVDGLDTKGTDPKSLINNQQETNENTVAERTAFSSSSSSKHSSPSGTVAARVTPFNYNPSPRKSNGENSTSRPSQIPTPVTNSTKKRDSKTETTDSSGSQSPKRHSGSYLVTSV
UniProt Q498G2: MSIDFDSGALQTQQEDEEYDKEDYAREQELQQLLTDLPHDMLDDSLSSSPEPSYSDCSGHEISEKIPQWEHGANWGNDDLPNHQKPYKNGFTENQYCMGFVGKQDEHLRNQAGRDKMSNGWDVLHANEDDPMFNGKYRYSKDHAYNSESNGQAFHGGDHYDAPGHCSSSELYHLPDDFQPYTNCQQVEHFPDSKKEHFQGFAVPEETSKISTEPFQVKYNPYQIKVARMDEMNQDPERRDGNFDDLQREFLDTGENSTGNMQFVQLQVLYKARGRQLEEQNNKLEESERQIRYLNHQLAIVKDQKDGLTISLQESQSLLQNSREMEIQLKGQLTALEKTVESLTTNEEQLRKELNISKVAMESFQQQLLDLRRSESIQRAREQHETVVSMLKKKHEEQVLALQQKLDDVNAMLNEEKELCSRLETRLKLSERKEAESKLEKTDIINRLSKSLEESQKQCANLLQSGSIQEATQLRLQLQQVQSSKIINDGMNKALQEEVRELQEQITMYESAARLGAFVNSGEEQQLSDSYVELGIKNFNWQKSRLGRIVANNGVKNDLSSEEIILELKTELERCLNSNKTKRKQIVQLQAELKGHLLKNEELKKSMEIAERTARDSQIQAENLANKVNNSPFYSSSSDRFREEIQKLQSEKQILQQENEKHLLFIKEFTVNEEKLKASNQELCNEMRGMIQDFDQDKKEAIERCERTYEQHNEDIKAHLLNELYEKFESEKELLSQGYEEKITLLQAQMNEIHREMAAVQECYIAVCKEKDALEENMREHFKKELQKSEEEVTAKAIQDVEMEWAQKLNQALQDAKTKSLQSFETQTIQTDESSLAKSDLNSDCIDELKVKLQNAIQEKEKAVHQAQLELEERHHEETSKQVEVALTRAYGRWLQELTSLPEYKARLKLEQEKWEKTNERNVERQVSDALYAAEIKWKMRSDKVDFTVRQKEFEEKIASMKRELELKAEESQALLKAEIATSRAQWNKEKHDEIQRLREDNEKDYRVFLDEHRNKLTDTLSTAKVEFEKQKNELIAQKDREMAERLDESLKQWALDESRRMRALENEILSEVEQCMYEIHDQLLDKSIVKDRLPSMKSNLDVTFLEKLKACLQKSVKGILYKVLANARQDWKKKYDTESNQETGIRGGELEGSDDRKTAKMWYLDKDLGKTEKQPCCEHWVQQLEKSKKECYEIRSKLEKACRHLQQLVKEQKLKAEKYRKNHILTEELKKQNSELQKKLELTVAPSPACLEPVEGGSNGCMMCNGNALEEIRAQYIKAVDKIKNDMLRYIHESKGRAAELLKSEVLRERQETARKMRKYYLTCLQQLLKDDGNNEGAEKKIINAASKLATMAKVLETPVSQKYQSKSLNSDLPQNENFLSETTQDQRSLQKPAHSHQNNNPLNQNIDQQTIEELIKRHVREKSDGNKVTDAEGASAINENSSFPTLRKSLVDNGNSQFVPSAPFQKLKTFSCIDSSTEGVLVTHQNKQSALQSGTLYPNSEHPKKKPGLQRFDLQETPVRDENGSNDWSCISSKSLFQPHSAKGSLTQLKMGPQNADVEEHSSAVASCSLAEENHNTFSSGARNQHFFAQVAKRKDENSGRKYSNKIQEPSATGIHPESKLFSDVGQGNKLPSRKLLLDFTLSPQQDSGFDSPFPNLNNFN
UniProt P70032: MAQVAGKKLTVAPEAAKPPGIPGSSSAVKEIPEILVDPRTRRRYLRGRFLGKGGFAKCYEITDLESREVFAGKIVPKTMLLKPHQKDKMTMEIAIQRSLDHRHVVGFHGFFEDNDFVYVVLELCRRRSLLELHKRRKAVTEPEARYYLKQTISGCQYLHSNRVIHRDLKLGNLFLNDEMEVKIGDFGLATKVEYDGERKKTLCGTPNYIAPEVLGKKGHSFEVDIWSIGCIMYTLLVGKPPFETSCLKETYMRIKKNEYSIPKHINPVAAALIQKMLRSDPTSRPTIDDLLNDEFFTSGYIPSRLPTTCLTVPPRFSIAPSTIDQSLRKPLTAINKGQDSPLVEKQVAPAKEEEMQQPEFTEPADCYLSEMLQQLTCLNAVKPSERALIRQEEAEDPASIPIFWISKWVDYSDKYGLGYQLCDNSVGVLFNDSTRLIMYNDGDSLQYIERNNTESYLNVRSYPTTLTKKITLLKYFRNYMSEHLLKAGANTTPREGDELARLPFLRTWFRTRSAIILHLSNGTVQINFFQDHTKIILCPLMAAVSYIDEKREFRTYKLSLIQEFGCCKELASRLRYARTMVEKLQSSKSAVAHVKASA
UniProt P09406: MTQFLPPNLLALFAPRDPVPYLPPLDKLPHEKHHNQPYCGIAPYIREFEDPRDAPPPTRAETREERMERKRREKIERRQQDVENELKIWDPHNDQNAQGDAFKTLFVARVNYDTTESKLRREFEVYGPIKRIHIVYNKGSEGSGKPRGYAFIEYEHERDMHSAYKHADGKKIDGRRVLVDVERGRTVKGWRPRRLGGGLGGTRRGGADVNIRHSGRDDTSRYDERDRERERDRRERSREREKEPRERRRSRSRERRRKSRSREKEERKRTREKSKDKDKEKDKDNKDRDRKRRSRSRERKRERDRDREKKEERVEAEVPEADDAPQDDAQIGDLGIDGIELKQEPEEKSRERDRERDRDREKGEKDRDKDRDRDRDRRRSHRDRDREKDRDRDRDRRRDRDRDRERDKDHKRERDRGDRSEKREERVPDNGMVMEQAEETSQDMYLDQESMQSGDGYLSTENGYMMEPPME

Each molecule was assayed against Xenopus SART1, endogenous (Xenopus laevis (endogenous in egg extracts)) (UniProt Q7ZYC1) (assay: affinity purification with mass spectrometry; SART1 immunoprecipitated from Xenopus CSF egg extract with Xenopus SART1 antibody cross-linked to Dynabeads protein A, 4 °C 60 min, washed with CSF-XB and CSF-XB with 0.5 M KCl and 0.1% Triton X-100; eluted with 0.1 M triethylamine pH 11.5; shotgun mass spectrometry; three biological repeats).

binding	Molecule
binds	APC (from UniProt P70039 1-2829)
binds	Cep152 (from UniProt Q498G2 1-1663)
binds	Plk1 (from UniProt P70032 1-598)
binds	SNRNP70 (from UniProt P09406 1-471)
binds	SNRPA (from UniProt P45429 1-282)
binds	Cep44 (protein, UniProt A2RVA7 1-384) MATGDVKGCIRKLEQRLRTLNYPRDVDYTGLIKGDPSASLPIISYTFTCYSTSIAEILISFGIELTTKSDLRFIEAVYKVLRDVFNYKPILTKQQFLQCAFSERKIQIICDIVDCVVKKHKEITGQNKVKSQLVKKVVSAKDQCEVFYPEDVSVQPSVKTTQKKPLVERHAGSEFLLPTKCYSSALVEDIEEEEPTSDSEGGSHLEHEMESPFETAETTPNSEQIELLRKQLAECQEKLQRLDCVEQRLQSLETSMKGKIIIDETDWNNLLSRVLLLETEGLLQSKKTDFSVPSEFACISEQRTSSRMTNEICSNLKTKADIPESHHQSSGYSFVLSADTSPIAIDINYSSLTEDSNETTKQRMERITKMMEETSKLLKCSNNT
binds	DDX42 (protein, UniProt Q7ZY47 1-947) MNWNKGGSGNKRGFGFGGFAISTGKKEEPKLPQVSHSAFQSASSKYGSTSNQLPSFYKIGSKRANFDEENSYFDDEEEDSSNVDLPYIPAENSPTRQQLRSKTDSDSEEDPLEAFMAEVEDQAAKDMRKLEERDKEKANARGIRDDIEEEDDQEAYFRYMAENPTAGLVPEEEEDNLEYDSDGNPIAPTTKRIIDPLPPIDHTEIEYPPFEKNFYEEHEAITSQTPQQITELRHKLNLRVSGAAPPRLCSSFAHFGFDEQLLHQIRKSEYTQPTPIQCQGIPVALSGRDMIGIAKTGSGKTAAFIWPILVHIMDQKELQPADGPIAVIVCPTRELCQQIHSECKRFGKAYNLRSVAVYGGGSMWEQAKALQEGAEIVVCTPGRLIDHVKKKATNLQRVTYLVFDEADRMFDMGFEYQVRSIANHVRPDRQTLLFSATFRKKIEKLARDILVDPIRVVQGDIGEANEDITQVVEILPSGPEKWTWLTRRLVEFTSTGSVLVFVTKKANAEELAANLRQDDHPLGLLHGDMDQSERNKVISDFKKKSIPVLVATDVAARGLDIPSIKTVVNYDVARDIDTHTHRIGRTGRAGEKGVAYTLLTSKESNFAGDLVRNLEGANQYVSKELLDLAMQNSWFRKSRFKAGKGKKLNIGGGGLGYRERPGLGAESSEHGTGGNVMSNYEAFKPSGGAMGDRLSAMKSAFQSQYKNHFVAASASTQKTGTSSINSGAWTSAGSLSSVPSAHPPSGKLPAEAAPPPVHTAMLGFTSSGTLSSIPTGYPANISSASYPAATLFGARDGASAGTESGGRERHSDSKGRHGDSHRPSDREGYRHGDGHRHSSSSRHGERNGGEGRRESSRDGRRDSSRDGESRRDGSRDGGEGRRESSRDGEGRRESSRDGDGRRESSGDGRREVVGDDGDSRKEGTREAKTDTFAIPVPPKRKKSRWDS
binds	SF3B1 (protein, UniProt O57683 1-1307) MAKVAKTHEDIEAQIREIQGKKAALDEEEGVGLDSTGYFDQEIYGGSDSRFTGYVTSIAANEQEDDDDDVSSATFEQKKPGYHAPVALLNDIPQSTEQYDPFAEHRPQKIANREDEYKQQRRKMIISPERLDPFADGGKTPDPKLNARTFKDVMQEQYLTKEEREIRQQIAEKAKSGDLKVVNGSSASSAAQPPSKRKRRWDQTGDQTPGSTPKKLSSWDQAEVTPGHTPSSLRWDETPGRAKGNETPGATPGSKIWDPTPSHTPAGVATPGRGDTPGHVTPGHSGATSSARKNRWDETPKTERDTPGHGSGWAETPRTDRGGDSIGETPTPGASKRKSRWDETPASQMGGSTPVLTPGKTPIGTPAMNMATPTPGHIMSMTPEQLQAWRWEREIDERNRPLSDEELDAMFPEGYKVLPPPAGYVPIRTPARKLTATPTPLGGLTGFHMPTEDRSMKSVSDQPSGNLPFLKPDDIQYFDKLLVDVDESTLSPEEQKERKIMKLLLKIKNGTPPMRKAALRQITDKAREFGAGPLFNQILPLLMSPTLEDQERHLLVKVIDRILYKLDDLVRPYVHKILVVIEPLLIDEDYYARVEGREIISNLAKAAGLATMISTMRPDIDNMDEYVRNTTARAFAVVASALGIPSLLPFLKAVCKSKKSWQARHTGIKIVQQIAILMGCAILPHLRSLVEIIEHGLVDEQQKVRTISALAIAALAEAATPYGIESFDSVLKPLWKGIRQHRGKGLAAFLKAIGYLIPLMDAEYANYYTREVMLILIREFQSPDEEMKKIVLKVVKQCCGTDGVEANYIKTEILPPFFKHFWQHRMALDRRNYRQLVDTTVELANKVGAAEIISRIVDDLKDEAEQYRKMVMETIEKIMGNLGAADIDHKLEEQLIDGILYAFQEQTTEDSVMLNGFGTVVNALGKRVKPYLPQICGTVLWRLNNKSAKVRQQAADLISRTAVVMKTCQEEKLMGHLGVVLYEYLGEEYPEVLGSILGALKAIVNVIGMHKMTPPIKDLLPRLTPILKNRHEKVQENCIDLVGRIADRGAEYVSAREWMRICFELLELLKAHKKAIRRATVNTFGYIAKAIGPHDVLATLLNNLKVQERQNRVCTTVAIAIVAETCSPFTVLPALMNEYRVPELNVQNGVLKSLSFLFEYIGEMGKDYIYAVTPLLEDALMDRDLVHRQTASAVVQHMSLGVYGFGCEDSLNHLLNYVWPNVFETSPHVIQAVMGALEGLRVAIGPCRMVQYCLQGLFHPARKVRDVYWKIYNSIYIGSQDALIAHYPRIYNDEKNTYIRYELDYTL
binds	POC5 (protein, UniProt Q6DFB7 1-572) MSSDEEYRESPILPKDSDHGSSVSSDLQDEYDELLRYAVVTPRFGPHFPEQNQLFTEQIKSDRFSSPKDPVQEQSLARNYSEENIPECSATSTSQRRSPPTANEEERAMSEKKSFLSGLEAFSPLHSEDLSLGGSTSSGSQVQQVRVKELPVPAENMDKVEDVLDLWSGTLKTNVMAELSKWRLTVIEQHKLEIKNQNEKHAEQISQLSSQIDKLQDHLQTYETSIQRKDEVISNLTHALEKHKEKMELMRTFTHWRLQLTEAREEDYARSLADRHYRNTLMKNAWKAWHSVIQSNWKDKIEQACRARAEEVCIELSNDYESKLTQLNSALGEARAEVQRLLAERGQFEGSMKKAFMRGVCALNMEAMSMFQGRESRMEYDPPPRREERDPSPSVTFQNPPVTSTHTSSTQHELQSALHSPVTCEPNYIHAFGPSTVSQSKEEAGAPAVISAATSASSVLSTQKLPMPRVVTSCQQKAGKIITARISARPDVSQRSSKIGSNITSMAVSPPISSIVVEKHHPVTQQTISQAAAAKYPRSALQSANSVGGRSTGQSGRVSQSHAGIHSIKVVD
binds	Cep97 (protein, UniProt Q6GPJ8 1-807) MAVAHLACDSQGSVVDLSGQGLQKLSPTLPFGNDTQTLILDKNQIIKLEHVEKCRNLVQLSVANNRLVRMMGVAKLIHLRVLNLPHNSIGYVEGLKDLVHLEWINLAGNNLKIIDQINSSTSLQHLDLSDNNISQIGDLSKLKSLKTLLLHGNNIASLRAASACLPQSLTILSLAENEIRDLNEVAFLAGLVDLEQLSIMNNPCVMATPSIPGFDYRPFIVSWCLNLKVLDGYVVSQKESLKAEWLYSQGKGRSYRLGQHIPLVQYLATVCPLTSAHGLQTEEDAKLDKILSKQRLHQKQLLHQTRSDGYLTSSTPNKRLPLSTEHHSPTHVLQTEPTVQVNNWLRSSSSEDHSYAVRNICSSPFGPPHYSSLYMEDIQTDEDKLNCSLLSSESTFMPVAPGLSPVSPTVELRVPAIKADLPVNETVIEFNKDHTELPPSETPEKPKLIPGLSAMQDDKSCCVYPVIKDENVTENIINCETAVSMESTQTSNGPTCHNLIMNCKQASVLDQDVNHINKISKAATKLQSCWRGFYARKYNPKVKDVCYEIRLSRMQEHIVFLTEEVIRLRKEKEEDRIQRILQGEAVRYLWEQVQAIQQWQNTVKLQTANSSENDLPSASNSKHANPALEELPSSPEKLNRKASPDIPDSGFHSVILNHCTMGNTEKNSSEESEYSQPSLDTGRHYNDKVPDSPADQDLTREEQSQSSKDSFTSEQDSSLLQQYLRSVEQLDETADNTSYSERTEESRPEITTCSDNSDLSCSISHFLPENSKQENIDIHSNLPSIDDGHNTPIPCDSSLLVPQPDLV
